Experimental data from the supplement of paper PMC7125110.
± gives the standard error. The uncertainty is large for many entries.

B1: glmS ribozyme (parent)
chain: AUAAAAGCGCCAGAACUACAGAAAUGUAGUUGACGAGGAGGAGGUUUAUCGAAUUUUCGGCGGAUGCCUCCAAA

Variants of: B1
Assay: KM; higher = weaker cofactor use; RNA array
Details: with glucosamine-6-phosphate
Outline: (§1)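 Tiles of sequenced MiSeq chips were imaged over ~14 h at 37 °C. On them, barcoded ribozyme variants had been transcribed in situ by E. coli RNA polymerase and were tracked via a hybridised Cy3 probe while glucosamine-6-phosphate (40 μM to 10 mM) in HEPES/KCl/Mg(OAc)2 buffer flowed in. Per-tile medians, normalised to baseline and to non-cleaving reference variants, were fit to one- or two-exponential decays for kobs, and weighted Michaelis–Menten fits gave kcat and KM.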

Row | Variant | KM
1 | AUAAAAGCGCCAGAACUACAGAAAUGUAGUUGACGAGGAGGAGGUUCAUCGAAUUUUCGGCGGAUGCCUGCAAA | 155 ± 95 µM
2 | AUAAAAGCGCCAGAACUACAGAAAUGUAGUUGACGAGGAGGAGGUUGAUCGAGUUUUCGGCGGAUGCCUCCAAA | 804 ± 250 µM
3 | AUAAAAGCGCCAGAACUACAGAAAUGUAGUUGACGAGGAGGAGGUUGAUCGAGUUUCCGGCGGAUGCUUCCAAA | 2460 ± 2000 µM
4 | AUAAAAGCGCCAGAACUACAGAAAUGUAGUUGACGAGGAGGAGGUUGAUCGAAUUUUUGGCGGAUGCCUCCAAA | 3070 ± 1900 µM
5 | AUAAAAGCGCCAGAACUACAGAAAUGUAGUUGACGAGGAGGAGGUUGAUCGAAUUUUCGGCGGAUGUCUCCAAA | 657 ± 480 µM
6 | AUAAAAGCGCCAGAACUACAGAAAUGUAGUUGACGAGGAGGAGGUUGAUCGAAUUUUCGGCGGAUUCCUCCAAA | 756 ± 130 µM
7 | AUAAAAGCGCCAGAACUACAGAAAUGUAGUUGACGAGGAGGAGGUUUGUCGAAUUAUCGGCGGAUGCCUCCAAA | 1220 ± 750 µM
8 | AUAAAAGCGCCAGAACUACAGAAAUGUAGUUGACGAGGAGGAGGUUUGUCGAAUUUUCGGCGGAGGCCUCCAAA | 13000 ± 8600 µM
9 | AUAAAAGCGCCAGAACUACAGAAAUGUAGUUGACGAGGAGGAGGUUUUUCGAAUUUUCGGCGGAUGCCUCUAAA | 1890 ± 590 µM
10 | AUAAAAGCGCCAGAACUACAGAAAUGUAGUUGACGAGGAGGAGGUUUUUCGAAUCUUCGGCGGAUGCCUCCAAA | 2190 ± 650 µM
11 | AUAAAAGCGCCAGAACUACAGAAAUGUAGUUGACGAGGAGGAGGUUUUUCGAAUUUUCGGCGGAAGCCUCCAAA | 18200 ± 2300 µM
12 | AUAAAAGCGCCAGAACUACAGAAAUGUAGUUGACGAGGAGGAGGUUUUUCGAAUUUUCGGCGGACGCCUCCAAA | 622 ± 430 µM
13 | AUAAAAGCGCCAGAACUACAGAAAUGUAGUUGACGAGGAGGAGGUUUUUCGAAUUUUCGGCGGAGGCCUUCAAA | 1870 ± 1200 µM
14 | AUAAAAGCGCCAGAACUACAGAAAUGUAGUUGACGAGGAGGAGGUUUACCGAAUUUUCGGCGGAUGCCUGCAAA | 238 ± 180 µM
15 | AUAAAAGCGCCAGAACUACAGAAAUGUAGUUGACGAGGAGGAGGUUUAGCGACUUUUCGGCGGAUGCCUCCAAA | 2860 ± 2200 µM
16 | AUAAAAGCGCCAGAACUACAGAAAUGUAGUUGACGAGGAGGAGGUUUAGCGAAUUUUCGGCGGGUGCCUCCAAA | 2620 ± 1500 µM
17 | AUAAAAGCGCCAGAACUACAGAAAUGUAGUUGACGAGGAGGAGGUUUAGCGAAUUAUCGGCGGAUGCCUCCAAA | 2720 ± 2000 µM
18 | AUAAAAGCGCCAGAACUACAGAAAUGUAGUUGACGAGGAGGAGGUUUAUGGAAUUUUCGGUGGAUGCCUCCAAA | 85.8 ± 53 µM
19 | AUAAAAGCGCCAGAACUACAGAAAUGUAGUUGACGAGGAGGAGGUUUAUGGAAUUUUCGGCGGAUGCCUCGAAA | 34.3 ± 19 µM
20 | AUAAAAGCGCCAGAACUACAGAAAUGUAGUUGACGAGGAGGAGGUUUAUUGAAUUUUCGGCGGAUGCCUCUAAA | 917 ± 550 µM
21 | AUAAAAGCGCCAGAACUACAGAAAUGUAGUUGACGAGGAGGAGGUUUAUUGAAUUUCCGGCGAAUGCCUCCAAA | 117 ± 69 µM
22 | AUAAAAGCGCCAGAACUACAGAAAUGUAGUUGACGAGGAGGAGGUUUAUCGGAUUUUCGGCGGGUGCCUCCAAA | 3690 ± 1500 µM
23 | AUAAAAGCGCCAGAACUACAGAAAUGUAGUUGACGAGGAGGAGGUUUAUCGGAUUUUCGGCGGAUGCUUCCAAA | 2500 ± 1600 µM
24 | AUAAAAGCGCCAGAACUACAGAAAUGUAGUUGACGAGGAGGAGGUUUAUCGGAUUUUCGGCAGAUGCCUCCAAA | 2360 ± 2000 µM
25 | AUAAAAGCGCCAGAACUACAGAAAUGUAGUUGACGAGGAGGAGGUUUAUCGGAUGUUCGGCGGAUGCCUCCAAA | 3170 ± 560 µM
26 | AUAAAAGCGCCAGAACUACAGAAAUGUAGUUGACGAGGAGGAGGUUUAUCGUACUUUCGGCGGAUGCCUCCAAA | 2570 ± 310 µM
27 | AUAAAAGCGCCAGAACUACAGAAAUGUAGUUGACGAGGAGGAGGUUUAUCGUAUCUUCGGCGGAUGCCUCCAAA | 11300 ± 3000 µM

Rewritten in markdown: entries from further up

| Row | Variant | KM |
| --- | --- | --- |
| 12 | AUAAAAGCGCCAGAACUACAGAAAUGUAGUUGACGAGGAGGAGGUUUUUCGAAUUUUCGGCGGACGCCUCCAAA | 622 ± 430 µM |
| 13 | AUAAAAGCGCCAGAACUACAGAAAUGUAGUUGACGAGGAGGAGGUUUUUCGAAUUUUCGGCGGAGGCCUUCAAA | 1870 ± 1200 µM |
| 14 | AUAAAAGCGCCAGAACUACAGAAAUGUAGUUGACGAGGAGGAGGUUUACCGAAUUUUCGGCGGAUGCCUGCAAA | 238 ± 180 µM |
| 15 | AUAAAAGCGCCAGAACUACAGAAAUGUAGUUGACGAGGAGGAGGUUUAGCGACUUUUCGGCGGAUGCCUCCAAA | 2860 ± 2200 µM |
| 16 | AUAAAAGCGCCAGAACUACAGAAAUGUAGUUGACGAGGAGGAGGUUUAGCGAAUUUUCGGCGGGUGCCUCCAAA | 2620 ± 1500 µM |
| 17 | AUAAAAGCGCCAGAACUACAGAAAUGUAGUUGACGAGGAGGAGGUUUAGCGAAUUAUCGGCGGAUGCCUCCAAA | 2720 ± 2000 µM |
| 18 | AUAAAAGCGCCAGAACUACAGAAAUGUAGUUGACGAGGAGGAGGUUUAUGGAAUUUUCGGUGGAUGCCUCCAAA | 85.8 ± 53 µM |

Variants of: B1
Assay: self-cleavage kobs at 40 uM GlcN6P; higher = faster cleavage; RNA array
Details: with glucosamine-6-phosphate
Outline: as §1

Row | Variant | self-cleavage kobs at 40 uM GlcN6P
28 | AUAAAAGCGCCAGAACUACAGAAAUGUAGUUGACGAGGAGGAGGUUCAUCGAAUUUUCGGCGGAUGCCUGCAAA | 2.91e-05 ± 1.6e-05 s⁻¹
29 | AUAAAAGCGCCAGAACUACAGAAAUGUAGUUGACGAGGAGGAGGUUUUUCGAAUUUUCGGCGGAUGCCUCUAAA | 2.18e-05 ± 1.6e-05 s⁻¹
30 | AUAAAAGCGCCAGAACUACAGAAAUGUAGUUGACGAGGAGGAGGUUUAUCGGAUGUUCGGCGGAUGCCUCCAAA | 1.59e-05 ± 1.2e-05 s⁻¹

Variants of: B1
Assay: self-cleavage kobs at 640 uM GlcN6P; higher = faster cleavage; RNA array
Details: with glucosamine-6-phosphate
Outline: as §1

Row | Variant | self-cleavage kobs at 640 uM GlcN6P
31 | AUAAAAGCGCCAGAACUACAGAAAUGUAGUUGACGAGGAGGAGGUUGAUCGAAUUUUUGGCGGAUGCCUCCAAA | 2.91e-05 ± 1.6e-05 s⁻¹
32 | AUAAAAGCGCCAGAACUACAGAAAUGUAGUUGACGAGGAGGAGGUUUUUCGAAUUUUCGGCGGACGCCUCCAAA | 1.9e-05 ± 1.8e-05 s⁻¹
33 | AUAAAAGCGCCAGAACUACAGAAAUGUAGUUGACGAGGAGGAGGUUUUUCGAAUUUUCGGCGGAGGCCUUCAAA | 3.1e-05 ± 1.9e-05 s⁻¹
34 | AUAAAAGCGCCAGAACUACAGAAAUGUAGUUGACGAGGAGGAGGUUUAUUGAAUUUUCGGCGGAUGCCUCUAAA | 1.5e-05 ± 1.1e-05 s⁻¹
35 | AUAAAAGCGCCAGAACUACAGAAAUGUAGUUGACGAGGAGGAGGUUUAUCGUAUCUUCGGCGGAUGCCUCCAAA | 2.77e-05 ± 1.4e-05 s⁻¹

Variants of: B1
Assay: self-cleavage kobs at 10000 uM GlcN6P; higher = faster cleavage; RNA array
Details: with glucosamine-6-phosphate
Outline: as §1

Row | Variant | self-cleavage kobs at 10000 uM GlcN6P
36 | AUAAAAGCGCCAGAACUACAGAAAUGUAGUUGACGAGGAGGAGGUUUUUCGAAUUUUCGGCGGAAGCCUCCAAA | 1.89e-05 ± 1.3e-05 s⁻¹
37 | AUAAAAGCGCCAGAACUACAGAAAUGUAGUUGACGAGGAGGAGGUUUAUGGAAUUUUCGGUGGAUGCCUCCAAA | 0.000559 ± 0.0005 s⁻¹
38 | AUAAAAGCGCCAGAACUACAGAAAUGUAGUUGACGAGGAGGAGGUUUAUGGAAUUUUCGGCGGAUGCCUCGAAA | 0.0013 ± 0.00081 s⁻¹
